PubChem BioAssay AID1159579 | Peter MacCallum Cancer Centre | 2015

- Aim: 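Retest candidate lymphatic endothelial migration regulators using several independent siRNAs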 (follow-up of hits)
- Cell system: human dermal lymphatic endothelial cells
- Reagent: single siRNA against human genes, 25 nM
- Measurement: 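Scratch wound imaging measuring area filled by moving cells plus nuclei number, averaged over two wells and scaled to mock-transfected controls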
- Reading the numbers: migration relative to mock: higher = more migration into the scratch; mean nuclei count: higher = more cells remaining
- Call rule: 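Called active when the migration ratio is 0.6 or lower (impaired) or 1.3 or higher (accelerated), but inactive whenever the mean nuclei count falls under 3300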
- Calls: active = migration changed (impaired or accelerated); inactive = no migration change, or too few cells
The whole screen tested about 2,000 reagents; below is a random part of them. Over the whole deposit, 549 (27%) were called active. 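Some migration ratios are negative; siRNAs with too few cells are inactive whatever their migration ratio.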 Entries without a mark were called inactive. The numbers tell different reagents against one gene apart. The record does not give: the time to read-out.

Gene	reagent	migration relative to mock	migration and cell number class	mean nuclei count
CSNK1G3	1	0.28 (active)	migration reduced	4702
CSNK1G3	2	0.91	no change in migration or cell number	6058
CSNK1G3	3	1.15	no change in migration or cell number	6161
CSNK1G3	4	0.6 (active)	migration reduced	5184
CD151	1	1.27	no change in migration or cell number	5918
CD151	2	0.92	no change in migration or cell number	6588
CD151	3	0.7	no change in migration or cell number	5151
CD151	4	0.78	no change in migration or cell number	5502
ATL3	1	1.02	no change in migration or cell number	6278
ATL3	2	0.4 (active)	migration reduced	5444
ATL3	3	0.88	no change in migration or cell number	5607
ATL3	4	0.88	no change in migration or cell number	4634
CGN	1	1.04	no change in migration or cell number	5964
CGN	2	0.71	no change in migration or cell number	4993
CGN	3	0.92	no change in migration or cell number	7556
CGN	4	0.76	no change in migration or cell number	7168
CFAP251	1	0.78	no change in migration or cell number	5634
CFAP251	2	1.08	no change in migration or cell number	7288
CFAP251	3	0.82	no change in migration or cell number	4682
CFAP251	4	1.14	no change in migration or cell number	4152
CLPTM1L	1	0.64	no change in migration or cell number	4328
CLPTM1L	2	0.65	no change in migration or cell number	4772
CLPTM1L	3	1	no change in migration or cell number	4620
CLPTM1L	4	0.97	no change in migration or cell number	5680
YWHAG	1	-0.38 (active)	migration reduced	3894
YWHAG	2	0.94	no change in migration or cell number	5950
YWHAG	3	1.14	no change in migration or cell number	4956
YWHAG	4	0.64	no change in migration or cell number	5972

Next part; the last 6 above are carried over.
Gene	reagent	migration relative to mock	migration and cell number class	mean nuclei count
CLPTM1L	3	1	no change in migration or cell number	4620
CLPTM1L	4	0.97	no change in migration or cell number	5680
YWHAG	1	-0.38 (active)	migration reduced	3894
YWHAG	2	0.94	no change in migration or cell number	5950
YWHAG	3	1.14	no change in migration or cell number	4956
YWHAG	4	0.64	no change in migration or cell number	5972
TMEM132E	1	-0.25 (active)	migration reduced	3450
TMEM132E	2	0.61	no change in migration or cell number	5879
TMEM132E	3	0.71	no change in migration or cell number	5707
TMEM132E	4	0.38 (active)	migration reduced	4366
AHCY	1	0.78	no change in migration or cell number	5008
AHCY	2	0.84	no change in migration or cell number	6146
AHCY	3	0.94	no change in migration or cell number	4354
AHCY	4	0.24 (active)	migration reduced	4488
DSG1	1	0.66	no change in migration or cell number	4608
DSG1	2	1.04	no change in migration or cell number	5197
DSG1	3	-0.48 (active)	migration reduced	3318
DSG1	4	0.92	no change in migration or cell number	4965
CCL23	1	1.16	no change in migration or cell number	5526
CCL23	2	1.14	no change in migration or cell number	5366
CCL23	3	1.12	no change in migration or cell number	5751
CCL23	4	-0.1 (active)	migration reduced	4304
CYP1A1	1	0.74	no change in migration or cell number	5774
CYP1A1	2	0.42 (active)	migration reduced	3897
CYP1A1	3	0.8	no change in migration or cell number	5665
CYP1A1	4	0.38 (active)	migration reduced	5866
